Among the data in the supplement of paper PMC10849652 are log2 fold change values, retold here.

Sequences of proteins named here, by UniProt entry; tags and fusion partners are left off. A change or cut given only in a name is not applied to a line headed by its entry.
UniProt Q9NRP2: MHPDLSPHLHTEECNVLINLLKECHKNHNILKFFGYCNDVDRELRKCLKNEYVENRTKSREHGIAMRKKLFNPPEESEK
UniProt Q6PJW8: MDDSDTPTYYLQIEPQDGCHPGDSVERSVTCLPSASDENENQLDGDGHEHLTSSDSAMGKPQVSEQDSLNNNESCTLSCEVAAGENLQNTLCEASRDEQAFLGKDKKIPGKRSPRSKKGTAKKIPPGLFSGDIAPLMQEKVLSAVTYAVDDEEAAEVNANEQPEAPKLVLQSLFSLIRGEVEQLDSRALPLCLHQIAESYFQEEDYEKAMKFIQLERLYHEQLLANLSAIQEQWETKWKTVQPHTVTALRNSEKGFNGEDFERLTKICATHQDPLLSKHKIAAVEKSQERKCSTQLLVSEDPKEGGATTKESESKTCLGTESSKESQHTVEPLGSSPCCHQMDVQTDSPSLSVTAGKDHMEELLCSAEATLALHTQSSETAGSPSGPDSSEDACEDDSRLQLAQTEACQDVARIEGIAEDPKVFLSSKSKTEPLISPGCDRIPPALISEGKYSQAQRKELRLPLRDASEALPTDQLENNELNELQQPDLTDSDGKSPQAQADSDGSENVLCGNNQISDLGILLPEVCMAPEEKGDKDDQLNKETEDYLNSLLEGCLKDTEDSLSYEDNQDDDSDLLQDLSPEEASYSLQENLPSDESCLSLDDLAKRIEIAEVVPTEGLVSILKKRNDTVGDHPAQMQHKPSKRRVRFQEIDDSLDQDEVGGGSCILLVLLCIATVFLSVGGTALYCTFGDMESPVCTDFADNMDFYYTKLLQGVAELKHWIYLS
UniProt Q9H6Q4: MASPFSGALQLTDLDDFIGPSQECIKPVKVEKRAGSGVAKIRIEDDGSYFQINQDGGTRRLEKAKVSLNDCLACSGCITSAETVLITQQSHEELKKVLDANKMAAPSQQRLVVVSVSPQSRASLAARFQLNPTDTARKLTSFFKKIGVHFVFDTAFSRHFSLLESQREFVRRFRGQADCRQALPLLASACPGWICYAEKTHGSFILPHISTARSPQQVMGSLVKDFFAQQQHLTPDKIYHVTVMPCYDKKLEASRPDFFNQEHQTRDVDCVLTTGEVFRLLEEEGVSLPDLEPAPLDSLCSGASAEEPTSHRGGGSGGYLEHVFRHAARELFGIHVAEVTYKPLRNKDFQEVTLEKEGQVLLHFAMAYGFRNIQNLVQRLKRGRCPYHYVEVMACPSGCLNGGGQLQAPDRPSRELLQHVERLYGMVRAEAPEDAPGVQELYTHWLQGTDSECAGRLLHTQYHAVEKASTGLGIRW
UniProt Q9Y2B0: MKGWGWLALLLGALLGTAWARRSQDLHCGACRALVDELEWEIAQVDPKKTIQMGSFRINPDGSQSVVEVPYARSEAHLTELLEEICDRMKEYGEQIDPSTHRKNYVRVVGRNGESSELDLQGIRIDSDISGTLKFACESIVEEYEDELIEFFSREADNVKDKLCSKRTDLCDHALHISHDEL
UniProt Q9NZ45: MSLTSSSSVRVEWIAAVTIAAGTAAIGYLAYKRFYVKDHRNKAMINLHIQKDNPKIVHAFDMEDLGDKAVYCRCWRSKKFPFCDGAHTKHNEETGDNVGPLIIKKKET
UniProt Q9H9A5, whole entry, looked up: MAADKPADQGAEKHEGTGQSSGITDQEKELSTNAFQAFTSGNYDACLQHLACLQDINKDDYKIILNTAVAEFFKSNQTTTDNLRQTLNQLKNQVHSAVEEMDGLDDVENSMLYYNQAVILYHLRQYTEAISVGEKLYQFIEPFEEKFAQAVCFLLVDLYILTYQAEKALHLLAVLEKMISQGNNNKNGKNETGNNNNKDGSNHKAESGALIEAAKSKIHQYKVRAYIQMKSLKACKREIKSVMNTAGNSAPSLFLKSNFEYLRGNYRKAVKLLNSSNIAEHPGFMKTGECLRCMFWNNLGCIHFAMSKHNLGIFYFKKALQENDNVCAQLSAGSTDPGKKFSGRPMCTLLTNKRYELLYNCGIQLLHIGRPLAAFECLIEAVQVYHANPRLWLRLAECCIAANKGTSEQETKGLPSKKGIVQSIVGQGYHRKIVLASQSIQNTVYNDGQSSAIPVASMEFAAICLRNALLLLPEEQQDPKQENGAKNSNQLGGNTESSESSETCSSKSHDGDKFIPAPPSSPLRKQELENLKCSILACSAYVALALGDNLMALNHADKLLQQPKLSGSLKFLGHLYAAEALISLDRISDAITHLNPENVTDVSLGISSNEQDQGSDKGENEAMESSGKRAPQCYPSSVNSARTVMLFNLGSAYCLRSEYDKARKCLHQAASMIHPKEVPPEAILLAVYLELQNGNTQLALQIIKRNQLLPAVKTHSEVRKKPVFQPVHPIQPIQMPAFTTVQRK
UniProt Q96BR5: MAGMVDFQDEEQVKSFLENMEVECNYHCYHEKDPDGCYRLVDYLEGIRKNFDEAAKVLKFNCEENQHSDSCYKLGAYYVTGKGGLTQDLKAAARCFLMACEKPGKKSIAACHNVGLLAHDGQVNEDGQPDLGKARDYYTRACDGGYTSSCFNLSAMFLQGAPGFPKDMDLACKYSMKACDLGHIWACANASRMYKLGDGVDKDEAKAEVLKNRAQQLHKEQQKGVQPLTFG
UniProt Q92600, whole entry, looked up: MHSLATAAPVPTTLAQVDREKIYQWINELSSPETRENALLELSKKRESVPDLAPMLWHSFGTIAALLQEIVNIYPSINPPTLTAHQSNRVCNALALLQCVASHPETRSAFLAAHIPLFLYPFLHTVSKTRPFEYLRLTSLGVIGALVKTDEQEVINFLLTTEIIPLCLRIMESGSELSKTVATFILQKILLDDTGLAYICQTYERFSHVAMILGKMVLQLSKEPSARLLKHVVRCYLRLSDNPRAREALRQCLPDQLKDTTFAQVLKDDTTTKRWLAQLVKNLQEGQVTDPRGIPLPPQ
UniProt P08123: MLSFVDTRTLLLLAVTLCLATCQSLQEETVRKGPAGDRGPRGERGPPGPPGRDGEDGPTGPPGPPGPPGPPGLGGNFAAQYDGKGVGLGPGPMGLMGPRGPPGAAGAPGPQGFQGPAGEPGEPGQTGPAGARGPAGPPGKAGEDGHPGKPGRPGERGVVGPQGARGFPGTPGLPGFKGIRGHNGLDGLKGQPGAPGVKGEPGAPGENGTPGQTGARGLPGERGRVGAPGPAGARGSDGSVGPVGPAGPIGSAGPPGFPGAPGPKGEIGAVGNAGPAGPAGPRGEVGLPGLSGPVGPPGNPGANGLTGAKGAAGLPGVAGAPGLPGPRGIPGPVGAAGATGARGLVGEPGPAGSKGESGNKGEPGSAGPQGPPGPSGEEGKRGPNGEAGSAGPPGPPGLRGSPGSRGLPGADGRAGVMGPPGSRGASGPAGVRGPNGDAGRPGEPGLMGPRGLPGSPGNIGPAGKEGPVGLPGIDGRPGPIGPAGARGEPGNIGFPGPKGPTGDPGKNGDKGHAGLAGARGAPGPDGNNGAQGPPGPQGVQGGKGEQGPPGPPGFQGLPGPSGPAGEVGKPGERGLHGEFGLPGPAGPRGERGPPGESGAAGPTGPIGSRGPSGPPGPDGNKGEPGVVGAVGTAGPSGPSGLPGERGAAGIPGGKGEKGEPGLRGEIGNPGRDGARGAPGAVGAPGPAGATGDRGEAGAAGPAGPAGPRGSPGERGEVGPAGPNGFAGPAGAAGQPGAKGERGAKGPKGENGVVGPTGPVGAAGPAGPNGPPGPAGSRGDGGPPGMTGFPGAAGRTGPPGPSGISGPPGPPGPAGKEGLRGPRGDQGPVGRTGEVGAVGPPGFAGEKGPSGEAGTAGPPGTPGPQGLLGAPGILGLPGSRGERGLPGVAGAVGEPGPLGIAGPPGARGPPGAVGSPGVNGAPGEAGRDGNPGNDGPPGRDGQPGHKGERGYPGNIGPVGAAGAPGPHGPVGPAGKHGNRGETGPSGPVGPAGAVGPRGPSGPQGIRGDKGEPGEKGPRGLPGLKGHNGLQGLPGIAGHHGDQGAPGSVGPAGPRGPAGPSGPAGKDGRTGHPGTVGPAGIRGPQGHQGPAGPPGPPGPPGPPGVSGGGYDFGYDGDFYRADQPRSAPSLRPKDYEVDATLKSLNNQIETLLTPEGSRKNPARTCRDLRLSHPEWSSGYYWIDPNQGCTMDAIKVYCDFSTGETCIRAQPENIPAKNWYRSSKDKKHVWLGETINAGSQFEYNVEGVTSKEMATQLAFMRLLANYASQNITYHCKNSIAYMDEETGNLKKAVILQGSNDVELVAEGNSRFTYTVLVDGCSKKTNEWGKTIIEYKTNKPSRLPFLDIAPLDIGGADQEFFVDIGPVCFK
UniProt Q8NFW8: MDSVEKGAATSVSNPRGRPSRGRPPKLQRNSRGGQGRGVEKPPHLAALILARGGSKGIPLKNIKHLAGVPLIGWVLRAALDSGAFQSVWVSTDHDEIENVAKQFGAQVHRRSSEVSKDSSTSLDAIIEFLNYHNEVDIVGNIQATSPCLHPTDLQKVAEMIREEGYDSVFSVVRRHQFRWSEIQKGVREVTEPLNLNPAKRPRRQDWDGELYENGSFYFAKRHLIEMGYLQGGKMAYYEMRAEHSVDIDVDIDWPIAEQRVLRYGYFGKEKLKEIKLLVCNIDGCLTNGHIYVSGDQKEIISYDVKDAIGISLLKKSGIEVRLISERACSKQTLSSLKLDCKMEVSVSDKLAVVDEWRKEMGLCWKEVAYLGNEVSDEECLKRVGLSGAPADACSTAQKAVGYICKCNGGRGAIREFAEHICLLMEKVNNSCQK
UniProt P09543: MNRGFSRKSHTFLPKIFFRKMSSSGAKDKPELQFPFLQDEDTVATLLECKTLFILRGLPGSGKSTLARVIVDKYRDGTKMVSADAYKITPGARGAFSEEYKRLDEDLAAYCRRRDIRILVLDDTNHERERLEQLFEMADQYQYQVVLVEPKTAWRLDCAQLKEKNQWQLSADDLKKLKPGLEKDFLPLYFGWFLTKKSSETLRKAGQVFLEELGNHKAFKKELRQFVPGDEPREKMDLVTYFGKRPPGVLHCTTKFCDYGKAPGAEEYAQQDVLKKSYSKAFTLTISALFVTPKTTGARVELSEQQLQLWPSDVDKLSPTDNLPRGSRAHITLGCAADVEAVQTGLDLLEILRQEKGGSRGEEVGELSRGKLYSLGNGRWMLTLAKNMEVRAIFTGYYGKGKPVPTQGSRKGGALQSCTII
UniProt Q9UHD1: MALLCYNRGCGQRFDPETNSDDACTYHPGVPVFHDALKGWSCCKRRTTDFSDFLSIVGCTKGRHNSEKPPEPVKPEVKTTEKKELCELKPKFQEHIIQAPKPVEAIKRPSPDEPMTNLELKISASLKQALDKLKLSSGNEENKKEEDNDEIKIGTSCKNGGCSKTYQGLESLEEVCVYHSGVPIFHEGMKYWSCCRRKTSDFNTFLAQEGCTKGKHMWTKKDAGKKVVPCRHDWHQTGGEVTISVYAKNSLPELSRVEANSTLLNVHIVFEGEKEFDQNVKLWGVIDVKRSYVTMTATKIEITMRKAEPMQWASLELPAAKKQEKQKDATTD
UniProt Q6P4Q7: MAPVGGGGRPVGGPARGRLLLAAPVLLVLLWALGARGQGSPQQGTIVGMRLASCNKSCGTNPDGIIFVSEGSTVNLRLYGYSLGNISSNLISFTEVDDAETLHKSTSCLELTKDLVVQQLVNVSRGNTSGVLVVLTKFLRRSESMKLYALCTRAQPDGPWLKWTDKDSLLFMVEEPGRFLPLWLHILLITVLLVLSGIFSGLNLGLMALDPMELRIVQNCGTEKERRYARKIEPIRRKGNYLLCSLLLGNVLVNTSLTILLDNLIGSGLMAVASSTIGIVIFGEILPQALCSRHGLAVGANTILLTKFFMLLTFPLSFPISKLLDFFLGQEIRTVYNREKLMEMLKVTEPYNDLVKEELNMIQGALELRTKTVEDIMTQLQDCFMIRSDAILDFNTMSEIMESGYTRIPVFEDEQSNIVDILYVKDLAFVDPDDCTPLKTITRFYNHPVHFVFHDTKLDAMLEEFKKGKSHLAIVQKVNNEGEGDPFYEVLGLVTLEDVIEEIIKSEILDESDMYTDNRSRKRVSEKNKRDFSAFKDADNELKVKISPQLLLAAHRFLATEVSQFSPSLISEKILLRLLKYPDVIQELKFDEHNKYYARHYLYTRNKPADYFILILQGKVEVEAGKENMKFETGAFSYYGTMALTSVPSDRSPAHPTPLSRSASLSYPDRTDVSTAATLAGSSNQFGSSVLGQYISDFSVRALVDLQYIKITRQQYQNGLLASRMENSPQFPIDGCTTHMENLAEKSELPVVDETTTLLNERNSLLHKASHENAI
UniProt Q8NCH0: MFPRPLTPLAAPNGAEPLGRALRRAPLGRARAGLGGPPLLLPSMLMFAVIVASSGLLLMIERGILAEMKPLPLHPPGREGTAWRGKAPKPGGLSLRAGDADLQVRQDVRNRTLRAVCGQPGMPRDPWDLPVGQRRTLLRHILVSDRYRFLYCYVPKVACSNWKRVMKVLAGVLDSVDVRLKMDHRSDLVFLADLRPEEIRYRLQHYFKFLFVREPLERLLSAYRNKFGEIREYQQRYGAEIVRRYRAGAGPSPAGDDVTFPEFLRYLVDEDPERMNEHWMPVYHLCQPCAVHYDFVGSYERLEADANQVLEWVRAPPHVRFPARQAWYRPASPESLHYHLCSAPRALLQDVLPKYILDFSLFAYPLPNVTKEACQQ

This is one part of the list.

Compound in the first assay: C1CCN(C1)C(=O)NC2=CC=CC(=C2)NC3=NC=C(C(=N3)NCCC4=CN=CN4)Br
Nature of the assay: log2 fold change, soluble protein after heating vs DMSO (PISA); higher = thermal stabilisation; K562 cells, 10 uM, 30 min; active = over 0.2 and 3.5 SD of the protein, either way, in both replicates (recomputed). The essentials:
(§1)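 Quantification of soluble protein used TMTpro 16plex LC-MS/MS, with channel sums equalised. Samples were the supernatant after 21,000xg for 90 min of pooled aliquots from K562 cells (2×10^6 cells/mL) treated with 10 μM compound for 30 min, heated for 3 min over 48°C-58°C, and extracted in PBS with 0.5% NP-40 at 4°C. Values, from duplicates, describe thermal stability against control samples on a log2 fold-change scale.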
On to CMC2 (UniProt Q9NRP2), for which the log2 fold change was inactive: 0.029.
For the target CMTM6 (UniProt Q9NX76), the log2 fold change is inactive: 0.02.
Same read-out and setting: with CNPY3 (UniProt Q9BT09) the figure was inactive: -0.007; with CIB1 isoform 2 (UniProt Q99828), inactive: -0.102; with CNST (UniProt Q6PJW8), inactive: 0.06.
For the target CIAO3 (UniProt Q9H6Q4), the log2 fold change was inactive: -0.043.
Still for that read-out and setting: to CNOT11 (UniProt Q9UKZ1) belongs inactive: -0.126; to COA1 (UniProt Q9GZY4), inactive: 0.009.
The same measure, in the same setting: to CNPY2 (UniProt Q9Y2B0) belongs inactive: 0.038; to CISD1 (UniProt Q9NZ45), inactive: 0.013.
Still for that read-out and setting: with CNOT6L (UniProt Q96LI5) the figure was inactive: -0.073; with CNOT10 isoform 6 (UniProt Q9H9A5), inactive: -0.041.
With CNOT3 (UniProt O75175), the log2 fold change was inactive: 0.
On to COA7 (UniProt Q96BR5), for which the log2 fold change was inactive: 0.001.
With CNTNAP4 (UniProt Q9C0A0), the log2 fold change is inactive: 0.097.
On the same count and under the same terms, with CMC1 (UniProt Q7Z7K0) the figure was inactive: 0.127.
With CHMP7 (UniProt Q8WUX9), the log2 fold change was inactive: -0.061.
Same read-out and setting: to CISD3 (UniProt P0C7P0) belongs inactive: -0.102; to CHURC1 isoform 2 (UniProt Q8WUH1), inactive: -0.005.
Same read-out and setting: to CNOT9 isoform 2 (UniProt Q92600) belongs inactive: -0.028; to CKMT2 (UniProt P17540), inactive: 0.022.
As to COL1A2 (UniProt P08123), the log2 fold change is inactive: 0.22.
Same read-out and setting: to CMAS (UniProt Q8NFW8) belongs inactive: -0.025.
The same measure, in the same setting: with CNP (UniProt P09543) the figure was inactive: -0.003; with CHORDC1 (UniProt Q9UHD1), inactive: -0.013; with CKM (UniProt P06732), inactive: -0.004.
Still for that read-out and setting: with CNNM3 (UniProt Q8NE01) the figure was inactive: -0.017; with CNNM4 (UniProt Q6P4Q7), inactive: -0.016.
On to CHST14 (UniProt Q8NCH0), for which the log2 fold change is inactive: 0.039.
On to CKAP5 (UniProt Q14008), for which the log2 fold change is inactive: -0.068.
On the same count and under the same terms, to CISD2 (UniProt Q8N5K1) belongs inactive: 0.002; to CKMT1A (UniProt P12532), inactive: -0.015.

Compound in a further assay: C1CN(CCC1(CC2=CC=C(C=C2)Cl)N)C3=NC=NC4=C3C=CN4
The description is as above. The essentials: as §1
CMC2 (UniProt Q9NRP2): the log2 fold change was inactive: -0.018.
The same measure, in the same setting: with CMTM6 (UniProt Q9NX76) the figure was inactive: 0.017.
The same measure, in the same setting: to CNPY3 (UniProt Q9BT09) belongs inactive: 0.053; to CIB1 isoform 2 (UniProt Q99828), inactive: -0.121.
On the same count and under the same terms, to CNST (UniProt Q6PJW8) belongs inactive: 0.03; to CIAO3 (UniProt Q9H6Q4), inactive: 0.014.
In the case of CNOT11 (UniProt Q9UKZ1), the log2 fold change was inactive: -0.007.
Same read-out and setting: to COA1 (UniProt Q9GZY4) belongs inactive: 0.04.
Still for that read-out and setting: with CNPY2 (UniProt Q9Y2B0) the figure was inactive: 0.004; with CISD1 (UniProt Q9NZ45), inactive: 0.042; with CNOT6L (UniProt Q96LI5), inactive: 0.02.
For CNOT10 isoform 6 (UniProt Q9H9A5), the log2 fold change is inactive: 0.007.
Still for that read-out and setting: with CNOT3 (UniProt O75175) the figure was inactive: -0.01.
On to COA7 (UniProt Q96BR5), for which the log2 fold change is inactive: 0.026.
Consider CNTNAP4 (UniProt Q9C0A0), for which the log2 fold change is inactive: -0.082.
The same measure, in the same setting: with CMC1 (UniProt Q7Z7K0) the figure was inactive: 0.145.
On the same count and under the same terms, with CHMP7 (UniProt Q8WUX9) the figure was inactive: 0.033.
Turning to CISD3 (UniProt P0C7P0), the log2 fold change was inactive: 0.049.
As for CHURC1 isoform 2 (UniProt Q8WUH1), the log2 fold change was inactive: 0.035.
The same measure, in the same setting: to CNOT9 isoform 2 (UniProt Q92600) belongs inactive: 0.023; to CKMT2 (UniProt P17540), inactive: 0.068; to COL1A2 (UniProt P08123), inactive: 0.228.
On the same count and under the same terms, with CMAS (UniProt Q8NFW8) the figure was inactive: -0.039.
The same measure, in the same setting: with CNP (UniProt P09543) the figure was inactive: 0.004; with CHORDC1 (UniProt Q9UHD1), inactive: -0.021.
On to CKM (UniProt P06732), for which the log2 fold change is inactive: -0.003.
On to CNNM3 (UniProt Q8NE01), for which the log2 fold change is inactive: 0.03.
In the case of CNNM4 (UniProt Q6P4Q7), the log2 fold change was inactive: 0.067.
In the case of CHST14 (UniProt Q8NCH0), the log2 fold change is inactive: 0.078.
On the same count and under the same terms, with CKAP5 (UniProt Q14008) the figure was inactive: -0.177; with CISD2 (UniProt Q8N5K1), inactive: 0.017; with CKMT1A (UniProt P12532), inactive: 0.03.

Compound in the next assay: C1COCCN1CCN2C3=CC=CC=C3N=C2NC(=O)C4=CC(=CC=C4)[N+](=O)[O-] [IRAK-1-4 Inhibitor I]
Described as above. The essentials:
as §1
With CMC2 (UniProt Q9NRP2), the log2 fold change is inactive: 0.024.
On the same count and under the same terms, to CMTM6 (UniProt Q9NX76) belongs inactive: -0.035.
On the same count and under the same terms, with CNPY3 (UniProt Q9BT09) the figure was inactive: 0.063.
On the same count and under the same terms, to CIB1 isoform 2 (UniProt Q99828) belongs inactive: 0.019; to CNST (UniProt Q6PJW8), inactive: 0.06.
Turning to CIAO3 (UniProt Q9H6Q4), the log2 fold change was inactive: 0.08.
The same measure, in the same setting: with CNOT11 (UniProt Q9UKZ1) the figure was inactive: 0.047; with COA1 (UniProt Q9GZY4), inactive: 0.062; with CNPY2 (UniProt Q9Y2B0), inactive: 0.041.
Still for that read-out and setting: to CISD1 (UniProt Q9NZ45) belongs inactive: 0.05; to CNOT6L (UniProt Q96LI5), inactive: -0.013; to CNOT10 isoform 6 (UniProt Q9H9A5), inactive: -0.037.
On the same count and under the same terms, to CNOT3 (UniProt O75175) belongs inactive: 0.
Take COA7 (UniProt Q96BR5): the log2 fold change was inactive: 0.023.
Still for that read-out and setting: to CNTNAP4 (UniProt Q9C0A0) belongs inactive: -0.169.
On to CMC1 (UniProt Q7Z7K0), for which the log2 fold change was inactive: 0.048.
As for CHMP7 (UniProt Q8WUX9), the log2 fold change was inactive: -0.046.
On to CISD3 (UniProt P0C7P0), for which the log2 fold change is inactive: -0.018.
On the same count and under the same terms, to CHURC1 isoform 2 (UniProt Q8WUH1) belongs inactive: -0.195; to CNOT9 isoform 2 (UniProt Q92600), inactive: -0.035.
Still for that read-out and setting: to CKMT2 (UniProt P17540) belongs inactive: 0.056; to COL1A2 (UniProt P08123), inactive: -0.05.
The same measure, in the same setting: with CMAS (UniProt Q8NFW8) the figure was inactive: -0.102.
Take CNP (UniProt P09543): the log2 fold change was inactive: 0.027.
Same read-out and setting: to CHORDC1 (UniProt Q9UHD1) belongs inactive: 0.015.
On the same count and under the same terms, to CKM (UniProt P06732) belongs inactive: -0.024; to CNNM3 (UniProt Q8NE01), inactive: 0.008; to CNNM4 (UniProt Q6P4Q7), inactive: 0.039.
The same measure, in the same setting: with CHST14 (UniProt Q8NCH0) the figure was inactive: 0.023.
Take CKAP5 (UniProt Q14008): the log2 fold change is inactive: -0.142.
CISD2 (UniProt Q8N5K1): the log2 fold change is inactive: 0.024.
Same read-out and setting: to CKMT1A (UniProt P12532) belongs inactive: 0.048.
